# Assay results as given in the supplement of paper PMC3334620.
# The full ranking holds about 33,000 sequences; the median of “E-score (-0.5 to 0.5)” is about -0.0014, and the highest 2% start at about 0.25. The list shows a part of the results.
# Biological target: T1, Cad1 (UniProt P24813)
# T1 sequence: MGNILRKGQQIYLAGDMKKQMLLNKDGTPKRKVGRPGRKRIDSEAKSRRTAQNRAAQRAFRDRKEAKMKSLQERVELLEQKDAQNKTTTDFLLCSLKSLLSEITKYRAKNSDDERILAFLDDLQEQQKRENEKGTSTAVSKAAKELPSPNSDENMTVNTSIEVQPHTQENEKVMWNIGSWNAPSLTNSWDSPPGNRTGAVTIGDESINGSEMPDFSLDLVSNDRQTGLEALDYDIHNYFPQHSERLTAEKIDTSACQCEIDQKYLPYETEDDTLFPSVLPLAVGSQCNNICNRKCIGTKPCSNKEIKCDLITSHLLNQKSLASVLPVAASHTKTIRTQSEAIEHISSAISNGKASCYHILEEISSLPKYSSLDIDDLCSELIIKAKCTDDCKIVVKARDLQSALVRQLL
# Test: PBM E-score (8-mer binding enrichment) (E-score (-0.5 to 0.5)); higher = stronger / more preferred TF binding
# Conditions: protein concentration: 100 nM; construct: GST-full length
# Description: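 Universal 'all 10-mer' protein binding microarrays (Agilent AMADID 015681) probed with GST-tagged S. cerevisiae TFs (full-length or DBD) made by in vitro transcription/translation (PURExpress), about 100-200 nM. Bound TF was detected with fluorescent anti-GST. Each ungapped 8-mer (which stands for itself and its reverse complement) is scored by the PBM enrichment score (E-score), a modified Wilcoxon-Mann-Whitney statistic from -0.5 to +0.5, computed with the Universal PBM Analysis Suite. Scale: above 0.35 generally sequence-specific binding.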
row,Sequence,PBM E-score
1,CTTCAGCC,-0.0251
2,ACGTAGCG,-0.0632
3,AAAACACC,-0.0358
4,AGTCGATC,-0.0812
5,TCCTAACA,-0.00505
6,TACCACAA,0.109
7,AGCAGGCA,-0.0719
8,TAGCCTCA,0.00759
9,CTCAATCC,0.0347
10,GGCGACTA,0.00513
11,ACGCCAGC,-0.0379
12,CGCTTGCA,0.022
13,CGCCGCAG,-0.0708
14,ATTTTACA,-0.0642
15,CTCCCCTA,-0.234
16,CTTCGTGC,-0.0684
17,AGGGCGTC,-0.0327
18,ATGGGCCC,-0.176
19,CAACGGAC,-0.00286
20,AGACTTCA,-0.223
21,AATAAGAA,0.252
22,AAAGAATA,0.0756

# Taken from above.
# For PBM E-score, TACCACAA reads 0.109
# For PBM E-score, CTCCCCTA reads -0.234

# Continued.

row,Sequence,PBM E-score
1,GTCCTCTA,-0.217
2,TCCCGACA,0.0229
3,TACGTGCA,-0.0253
4,CACATCAA,0.0379
5,GGGTCGTA,-0.236
6,GACACGAA,0.129
7,GAATCAAC,0.264
8,AGCTCTAG,-0.0306
9,CATGGGTC,-0.0891
10,GCGTTATA,-0.0154
11,GACTCCCA,-0.266
12,CCTTGAAG,-0.055
13,ACCCCATA,-0.0838
14,AGAAGGAT,-0.277
15,TAGGGGAA,-0.0561
16,ACAGTCCC,-0.188
17,GCCATTAA,0.089
18,CCGAATCA,-0.128
19,GCATGCAC,0.0754
20,AAGTGAAG,-0.141
21,AAACGGCT,-0.224
22,ACTATCAT,0.143

row,Sequence,PBM E-score
1,ATGGAGTG,-0.162
2,TCAATCAA,0.0737
3,AGGTTAGA,-0.223
4,AGTTCACA,0.0372
5,CGCCAGGC,-0.0333
6,CTTTTCCA,-0.284
7,AGTACTCG,0.092
8,ACTCCGCT,-0.102
9,CGTGCCTA,-0.00024
10,CTCAGGCC,-0.301
11,ATCCCCCC,-0.44
12,ACCGCAAC,0.196
13,CGTATATC,0.00891
14,AGATGAGC,0.0232
15,TATGTAGA,-0.0427
16,CACGAGGA,0.0402
17,CCGAGCTA,-0.0872
18,CATGCAAG,-0.205
19,GGAACGGA,-0.00579
20,AAAAGTGA,-0.133
21,ATATTTAC,0.228
22,GAGTCATA,-0.0502

row,Sequence,PBM E-score
1,ATGGTGGC,-0.284
2,CTACAGAG,-0.215
3,GGAATATA,0.105
4,GCACGCAA,-0.146
5,CGCCTAGC,-0.225
6,CGCCTACA,-0.0714
7,AGTAACAA,0.082
8,ATACTAAA,0.231
9,CGAATCTC,0.0764
10,AGCCAAAC,0.0147
11,ATCGTGAG,-0.0704
12,CGCGTCAA,0.0721
13,GGCTTTAA,-0.12
14,CTGCGTCC,-0.0351
15,CAATCGGG,-0.0983
16,GAGATCTC,-0.0139
17,GGCATTAC,0.152
18,TAGAGACA,-0.0387
19,AGCAAATG,-0.0687
20,ATCCTGTA,0.0786
21,AGCTAAAG,-0.0415
22,GGCTGCGA,0.0509

row,Sequence,PBM E-score
1,CAGTCCGC,0.0506
2,CACCGTGG,-0.018
3,AAACCTTA,0.111
4,AAACTATA,0.0672
5,ACTACGTG,-0.201
6,CATCAAAG,-0.121
7,ATGCGAGA,0.0542
8,ACGACGCC,-0.325
9,CAAATACC,0.0302
10,CCGCTGCC,-0.124
11,GGTAGTTA,-0.145
12,ACGCTGGG,-0.303
13,CGGCGGGC,0.0186
14,GTGATTCA,-0.0138
15,CGATGGAG,-0.0257
16,CAGATCAC,-0.129
17,CGTACGAC,-0.17
18,GGAGTCGA,-0.141
19,CGTAATTA,0.249
20,ATGGACGG,0.0931
21,AGGCAAGG,-0.224
22,CGGCAGGC,-0.0773

# Reformatted with bars between the fields: part of the list above
row | Sequence | PBM E-score
18 | GGAGTCGA | -0.141
19 | CGTAATTA | 0.249
20 | ATGGACGG | 0.0931
